From the odorant receptor screen of Mainland et al. (2015) come the findings set out here.

Chains of the proteins cited; added tags and fusions are not shown. Chains listed by the source or under a name are the forms on record and can include a tag or linker.
OR4F14 A297T, as listed by the source, stated change not applied: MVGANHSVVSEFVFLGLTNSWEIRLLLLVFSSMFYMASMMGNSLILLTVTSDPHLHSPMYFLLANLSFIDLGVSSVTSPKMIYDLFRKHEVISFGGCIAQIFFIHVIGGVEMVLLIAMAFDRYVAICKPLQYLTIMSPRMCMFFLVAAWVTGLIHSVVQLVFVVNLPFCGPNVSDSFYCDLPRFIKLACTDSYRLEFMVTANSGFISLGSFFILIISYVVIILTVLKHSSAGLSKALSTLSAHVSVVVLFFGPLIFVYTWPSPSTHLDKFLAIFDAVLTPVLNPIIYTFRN

Among the test systems are OR4B1 clone 1189; OR4C11 clone 1244; OR4C12 V283L clone 1155; OR4C15 clone 1337; OR4C15 clone 1449; OR4C3 clone 1284; OR4C3 clone 1480; OR4C46 K288R clone 1483; OR4C5 clone 1307; OR4D1 R54Q clone 1467; OR4D1 clone 1316; OR4D10 clone 1174; OR4D11 clone 1243; OR4D5 clone 1122; OR4D6 D96G clone 1225; OR4D9 clone 1217; OR4F14 A297T clone 1059.
Assay in all cases: odorant receptor activation (CRE luciferase / Renilla) (fold of no-odor wells); higher = more activation
What all share (conditions): 100 µM

For experiment [1], the system named is OR4C16 V25L/T76A/L259P clone 1237.
The test system of experiment [2] is OR4D2 C97S/L187F clone 1285.
The test system of experiment [3] is OR4E2 V118M/Q234R clone 1274.

Structures are written as SMILES. “And” between values parts separate entries of the source, which are not always exact repeats. Equal values may be shown once. This is one part of the list. Each value is one well over the wells without odorant, computed here; the data are noisy.

With `CC1=CCC(C(C)(C)O)CC1` (centres undefined) [terpineol], the odorant receptor activation with OR4B1 clone 1189 stood at 0.77; in the experiment with OR4C11 clone 1244, 1.07; in the experiment on OR4C12 V283L clone 1155, 0.883; in the experiment on OR4C15 clone 1337 it was 0.831; in the experiment on OR4C15 clone 1449 it was 1.18; in [1], 1.14. In addition, the odorant receptor activation in the experiment on OR4C3 clone 1284 worked out at 0.997; with OR4C3 clone 1480, 0.767; in the experiment on OR4C46 K288R clone 1483 it was 0.813; in the experiment with OR4C5 clone 1307 it was 0.859; in the experiment with OR4D1 R54Q clone 1467, 0.725; with OR4D1 clone 1316 it was 0.909. For the same molecule, the odorant receptor activation in the experiment with OR4D10 clone 1174 is 0.978; in the experiment on OR4D11 clone 1243, 0.891; in [2], 0.786; with OR4D5 clone 1122, 0.946; with OR4D6 D96G clone 1225 it was 1.73; in the experiment with OR4D9 clone 1217 it was 1.31. Besides, the odorant receptor activation in experiment [3] was determined as 1.13; in the experiment on OR4F14 A297T clone 1059, 1.03.

Regarding `CC(C)(C)c1ccc(CCC=O)cc1` [bourgeonal], the odorant receptor activation was found to be 0.676 in the experiment on OR4B1 clone 1189; 0.708 in the experiment with OR4C11 clone 1244; 0.745 in the experiment with OR4C12 V283L clone 1155; 0.727 in the experiment with OR4C15 clone 1337; 0.129 in the experiment with OR4C15 clone 1449; 0.656 in the experiment with OR4C3 clone 1284. For the same molecule, the odorant receptor activation in the experiment on OR4C3 clone 1480 is 0.916; with OR4C46 K288R clone 1483, 0.932; in the experiment on OR4C5 clone 1307, 0.86; with OR4D1 R54Q clone 1467, 1.06; in the experiment with OR4D1 clone 1316 it was 0.574; in the experiment with OR4D10 clone 1174, 0.828. The odorant receptor activation with OR4D11 clone 1243 turned out to be 0.695; in [2] it was 0.884; in the experiment on OR4D6 D96G clone 1225, 0.675; with OR4D9 clone 1217, 0.634; in [3], 1.02; with OR4F14 A297T clone 1059 it was 0.841.

In the case of `CC=Cc1ccc(O)c(OC)c1` [isoeugenol], the odorant receptor activation with OR4B1 clone 1189 is 0.791; in the experiment on OR4C11 clone 1244, 1.01 and 1.51; in the experiment on OR4C12 V283L clone 1155, 1.74; in the experiment on OR4C15 clone 1337, 1.42 and 1.34; with OR4C15 clone 1449 it was 1.5; in experiment [1], 5.54. Also, the odorant receptor activation in the experiment with OR4C3 clone 1284 was 1.06 and 1.74; in the experiment on OR4C3 clone 1480, 0.952 and 2.66; with OR4C46 K288R clone 1483, 0.918 and 2.16; with OR4C5 clone 1307 it was 0.899 and 1.61; with OR4D1 clone 1316, 1.27 and 1.38; in the experiment on OR4D10 clone 1174, 0.996. Further, the odorant receptor activation is 1.17 and 1.11 in the experiment with OR4D11 clone 1243; 0.758 and 1.68 in experiment [2]; 3.96 in the experiment with OR4D5 clone 1122; 1.08 in the experiment on OR4D6 D96G clone 1225; 1.07 with OR4D9 clone 1217; 1.67 and 1.53 in experiment [3]. In the experiment on OR4F14 A297T clone 1059, this molecule gave an odorant receptor activation of 2.16.

As for `CC12C=CCC1C1CCC3=CC(=O)CCC3(C)C1CC2` (centres undefined) [androstadienone], the odorant receptor activation in the experiment with OR4B1 clone 1189 was 0.732; with OR4C11 clone 1244, 1.01 and 1.27; in the experiment on OR4C12 V283L clone 1155, 1.35; in the experiment with OR4C15 clone 1337 it was 1.21 and 1.11; with OR4C15 clone 1449 it was 1.04; in the experiment with OR4C3 clone 1284, 0.618 and 0.873. The odorant receptor activation in the experiment on OR4C3 clone 1480 was 0.826 and 1.34; in the experiment with OR4C46 K288R clone 1483, 1.1 and 1.34; with OR4C5 clone 1307, 1.15 and 0.891; with OR4D1 R54Q clone 1467 it was 1.15 and 1.2; in the experiment on OR4D1 clone 1316 it was 1.09 and 0.783; in the experiment on OR4D10 clone 1174, 0.907. The odorant receptor activation in the experiment with OR4D11 clone 1243 is 1.07 and 0.965; in experiment [2] it was 0.986 and 1.26; in the experiment with OR4D6 D96G clone 1225 it was 0.993; with OR4D9 clone 1217, 0.804; in [3], 1.29 and 1.22; in the experiment with OR4F14 A297T clone 1059 it was 2.85.

Consider `C=C(C)C1CC=CCC1` (centres undefined) [r-limonene], for which the odorant receptor activation with OR4B1 clone 1189 is 0.777 and 0.666; with OR4C11 clone 1244, 0.958 and 0.518; in the experiment on OR4C12 V283L clone 1155 it was 0.799 and 0.457; with OR4C15 clone 1449, 1.33 and 0.843 and 0.641; in experiment [1], 1.09; with OR4C3 clone 1284, 0.788 and 0.484. Moreover, the odorant receptor activation is 0.953 and 0.915 and 0.824 in the experiment with OR4C3 clone 1480; 1.02 and 0.433 and 0.835 in the experiment with OR4C46 K288R clone 1483; 0.914 and 0.413 and 0.646 in the experiment on OR4D1 R54Q clone 1467; 0.701 and 0.474 with OR4D10 clone 1174; 0.633 and 0.823 in experiment [2]; 0.94 in the experiment with OR4D5 clone 1122. Further, the odorant receptor activation in the experiment on OR4D6 D96G clone 1225 was 1.33 and 0.695; in the experiment with OR4F14 A297T clone 1059, 1.21 and 2.86.

On to `C=CCSCC=C` [diallyl sulfide], for which the odorant receptor activation in the experiment with OR4B1 clone 1189 amounted to 1.05; in the experiment with OR4C11 clone 1244, 1.04; with OR4C12 V283L clone 1155, 1; in the experiment on OR4C15 clone 1337, 0.9; in the experiment on OR4C15 clone 1449, 1.3; in [1], 0.797. The odorant receptor activation was 0.902 in the experiment on OR4C3 clone 1284; 1.17 in the experiment with OR4C3 clone 1480; 1.22 with OR4C46 K288R clone 1483; 1.19 in the experiment with OR4C5 clone 1307; 1.34 in the experiment on OR4D1 R54Q clone 1467; 1.25 in the experiment with OR4D1 clone 1316. Moreover, the odorant receptor activation was determined as 0.875 in the experiment with OR4D10 clone 1174; 0.971 with OR4D11 clone 1243; 1 in [2]; 0.966 in the experiment with OR4D5 clone 1122; 1.15 in the experiment on OR4D6 D96G clone 1225; 0.999 in the experiment with OR4D9 clone 1217. The figures for the odorant receptor activation (in experiment [3]; with OR4F14 A297T clone 1059) were 0.994 and 0.895, respectively.

For `CC1CCC(C(C)C)C(O)C1` (single isomer, unassigned; (-)) [(-)-menthol], the odorant receptor activation with OR4B1 clone 1189 was determined as 1.15; in the experiment on OR4C11 clone 1244, 0.519; in the experiment with OR4C12 V283L clone 1155 it was 1.22; in the experiment on OR4C15 clone 1337, 0.854; with OR4C15 clone 1449, 0.887; in experiment [1], 1.47. The odorant receptor activation turned out to be 0.597 in the experiment on OR4C3 clone 1284; 3.57 with OR4C3 clone 1480; 5.15 in the experiment on OR4C46 K288R clone 1483; 1.04 with OR4C5 clone 1307; 4.46 with OR4D1 R54Q clone 1467; 0.846 in the experiment with OR4D1 clone 1316. Also, the odorant receptor activation with OR4D10 clone 1174 came out at 1.16; with OR4D11 clone 1243 it was 0.634; in experiment [2], 0.882; in the experiment with OR4D5 clone 1122, 0.827; in the experiment with OR4D6 D96G clone 1225 it was 0.785; in the experiment with OR4D9 clone 1217, 1.16. For the same molecule, the odorant receptor activation was 0.719 in [3] and 4.1 with OR4F14 A297T clone 1059.
